The other results are listed elsewhere or left out.
These targets were tested with CN1CCN(CCOc2cc(OC3CCOCC3)c3c(Nc4c(Cl)ccc5c4OCO5)ncnc3c2)CC1 [saracatinib] (assay: log2 fold change, soluble protein after heating vs DMSO (PISA); higher = thermal stabilisation; K562 cells, 10 uM, 30 min; active = over 0.2 and 3.5 SD of the protein, either way, in both replicates (recomputed)).
Summary of the method: (§1)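 Aliquots of K562 cells (2×10^6 cells/mL) treated with 10 μM compound for 30 min were heated for 3 min over 48°C-58°C. After pooling and extraction in PBS with 0.5% NP-40 at 4°C, soluble protein from a 21,000xg, 90 min spin was quantified by TMTpro 16plex LC-MS/MS with channel sums equalised. Thermal stability is expressed against control samples, from duplicates, as a log2 fold change.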

Amino acid sequences for entries named in this document (tags omitted). A change or cut given only in a name is not applied to a line headed by its entry.
UniProt Q86WG5: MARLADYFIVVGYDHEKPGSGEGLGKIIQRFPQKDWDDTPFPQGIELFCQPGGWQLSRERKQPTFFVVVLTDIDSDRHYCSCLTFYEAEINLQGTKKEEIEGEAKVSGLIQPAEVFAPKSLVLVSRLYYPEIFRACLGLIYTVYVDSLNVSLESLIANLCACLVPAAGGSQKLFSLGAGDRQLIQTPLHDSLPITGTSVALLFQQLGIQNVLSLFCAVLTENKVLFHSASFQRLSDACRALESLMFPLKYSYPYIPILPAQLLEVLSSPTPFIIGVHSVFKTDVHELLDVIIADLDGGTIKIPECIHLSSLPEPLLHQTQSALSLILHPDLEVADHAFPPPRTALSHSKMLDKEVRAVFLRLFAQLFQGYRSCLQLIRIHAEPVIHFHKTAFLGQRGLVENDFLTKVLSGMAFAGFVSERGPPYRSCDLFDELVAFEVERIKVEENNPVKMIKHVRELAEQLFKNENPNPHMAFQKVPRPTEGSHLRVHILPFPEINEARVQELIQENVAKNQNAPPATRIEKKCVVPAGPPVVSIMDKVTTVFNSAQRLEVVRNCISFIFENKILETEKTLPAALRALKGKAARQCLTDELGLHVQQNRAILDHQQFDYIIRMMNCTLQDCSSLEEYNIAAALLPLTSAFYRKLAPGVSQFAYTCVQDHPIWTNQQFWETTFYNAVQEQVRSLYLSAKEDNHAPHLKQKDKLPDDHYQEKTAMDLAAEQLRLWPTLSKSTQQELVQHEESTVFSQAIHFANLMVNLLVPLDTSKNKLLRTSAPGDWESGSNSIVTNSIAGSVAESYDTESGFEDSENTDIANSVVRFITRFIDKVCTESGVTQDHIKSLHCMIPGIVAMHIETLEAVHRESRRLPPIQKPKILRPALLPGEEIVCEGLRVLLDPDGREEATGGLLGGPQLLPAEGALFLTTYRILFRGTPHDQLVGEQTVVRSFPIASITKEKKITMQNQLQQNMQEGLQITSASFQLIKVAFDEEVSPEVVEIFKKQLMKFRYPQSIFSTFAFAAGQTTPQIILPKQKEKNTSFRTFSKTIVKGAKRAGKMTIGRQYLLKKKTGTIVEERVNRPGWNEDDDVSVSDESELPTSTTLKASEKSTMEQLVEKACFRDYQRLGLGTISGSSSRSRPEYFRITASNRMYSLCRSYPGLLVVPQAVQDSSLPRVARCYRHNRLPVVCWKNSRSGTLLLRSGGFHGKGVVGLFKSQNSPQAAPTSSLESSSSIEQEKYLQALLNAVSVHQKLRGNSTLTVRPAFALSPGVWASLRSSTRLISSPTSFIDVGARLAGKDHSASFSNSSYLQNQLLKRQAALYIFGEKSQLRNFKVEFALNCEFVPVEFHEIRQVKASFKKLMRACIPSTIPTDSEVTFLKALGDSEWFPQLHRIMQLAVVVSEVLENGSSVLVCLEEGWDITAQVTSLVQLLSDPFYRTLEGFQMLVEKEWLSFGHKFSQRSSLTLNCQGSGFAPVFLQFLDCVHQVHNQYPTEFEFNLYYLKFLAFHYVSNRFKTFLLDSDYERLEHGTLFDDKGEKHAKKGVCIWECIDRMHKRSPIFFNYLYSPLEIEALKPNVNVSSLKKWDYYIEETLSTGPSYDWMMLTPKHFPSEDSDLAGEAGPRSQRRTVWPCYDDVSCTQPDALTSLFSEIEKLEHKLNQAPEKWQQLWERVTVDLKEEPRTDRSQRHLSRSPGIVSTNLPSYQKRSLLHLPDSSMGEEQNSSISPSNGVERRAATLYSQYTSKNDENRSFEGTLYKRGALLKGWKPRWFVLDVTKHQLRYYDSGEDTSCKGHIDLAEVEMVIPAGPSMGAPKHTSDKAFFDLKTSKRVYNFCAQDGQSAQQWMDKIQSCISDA
UniProt Q96FQ6: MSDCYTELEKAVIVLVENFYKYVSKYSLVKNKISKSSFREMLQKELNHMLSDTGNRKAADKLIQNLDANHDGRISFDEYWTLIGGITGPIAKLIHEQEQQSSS
UniProt Q9UPU9: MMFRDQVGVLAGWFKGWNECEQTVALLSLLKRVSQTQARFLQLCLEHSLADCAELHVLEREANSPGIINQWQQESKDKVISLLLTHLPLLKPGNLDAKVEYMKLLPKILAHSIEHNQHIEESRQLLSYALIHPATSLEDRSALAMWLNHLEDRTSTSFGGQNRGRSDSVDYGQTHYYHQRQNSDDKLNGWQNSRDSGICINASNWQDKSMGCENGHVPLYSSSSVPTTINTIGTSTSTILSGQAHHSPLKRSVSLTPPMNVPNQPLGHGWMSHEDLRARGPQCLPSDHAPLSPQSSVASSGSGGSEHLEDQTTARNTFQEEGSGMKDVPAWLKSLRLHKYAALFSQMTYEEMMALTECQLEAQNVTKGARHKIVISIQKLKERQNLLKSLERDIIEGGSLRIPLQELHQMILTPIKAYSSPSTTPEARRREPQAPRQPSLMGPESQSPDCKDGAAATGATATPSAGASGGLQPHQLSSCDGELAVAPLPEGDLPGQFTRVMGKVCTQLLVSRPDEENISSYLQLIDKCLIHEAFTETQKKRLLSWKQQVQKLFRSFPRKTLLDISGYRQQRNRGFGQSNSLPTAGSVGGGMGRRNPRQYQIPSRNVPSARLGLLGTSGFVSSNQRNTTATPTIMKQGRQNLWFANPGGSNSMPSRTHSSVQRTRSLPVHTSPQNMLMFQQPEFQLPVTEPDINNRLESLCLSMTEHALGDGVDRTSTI
UniProt A6ZKI3: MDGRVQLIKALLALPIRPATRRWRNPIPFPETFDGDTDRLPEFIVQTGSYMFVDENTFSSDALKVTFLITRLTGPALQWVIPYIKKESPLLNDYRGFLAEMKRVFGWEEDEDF
UniProt Q8IZE3: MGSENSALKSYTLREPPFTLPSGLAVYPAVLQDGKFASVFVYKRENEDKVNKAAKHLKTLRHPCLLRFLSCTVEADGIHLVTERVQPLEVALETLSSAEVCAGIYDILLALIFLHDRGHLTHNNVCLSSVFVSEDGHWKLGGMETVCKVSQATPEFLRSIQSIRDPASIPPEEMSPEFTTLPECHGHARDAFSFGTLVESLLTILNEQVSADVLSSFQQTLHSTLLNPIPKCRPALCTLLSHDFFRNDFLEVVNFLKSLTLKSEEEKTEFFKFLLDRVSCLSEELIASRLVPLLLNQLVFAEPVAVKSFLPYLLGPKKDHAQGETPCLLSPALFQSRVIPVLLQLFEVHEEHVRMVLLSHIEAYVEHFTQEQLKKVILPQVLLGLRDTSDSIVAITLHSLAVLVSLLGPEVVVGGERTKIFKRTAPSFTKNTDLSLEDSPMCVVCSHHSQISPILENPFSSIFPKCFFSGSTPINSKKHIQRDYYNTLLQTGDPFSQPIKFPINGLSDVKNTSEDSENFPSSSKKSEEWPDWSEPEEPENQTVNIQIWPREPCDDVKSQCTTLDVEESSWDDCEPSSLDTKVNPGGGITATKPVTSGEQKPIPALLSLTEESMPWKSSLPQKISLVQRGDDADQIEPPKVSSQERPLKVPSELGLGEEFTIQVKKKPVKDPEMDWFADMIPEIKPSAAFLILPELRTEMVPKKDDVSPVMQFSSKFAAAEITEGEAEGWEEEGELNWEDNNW
UniProt Q7L3V2: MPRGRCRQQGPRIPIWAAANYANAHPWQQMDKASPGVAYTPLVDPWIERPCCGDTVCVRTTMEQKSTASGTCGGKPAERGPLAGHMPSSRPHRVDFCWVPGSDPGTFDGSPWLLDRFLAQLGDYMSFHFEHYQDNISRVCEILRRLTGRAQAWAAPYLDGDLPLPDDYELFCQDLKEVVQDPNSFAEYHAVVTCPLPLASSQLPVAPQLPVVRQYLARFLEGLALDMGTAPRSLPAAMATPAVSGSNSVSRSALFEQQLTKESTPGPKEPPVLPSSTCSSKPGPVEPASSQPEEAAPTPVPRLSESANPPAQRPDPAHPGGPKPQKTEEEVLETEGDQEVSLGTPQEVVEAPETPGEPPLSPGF
UniProt Q8N9R8: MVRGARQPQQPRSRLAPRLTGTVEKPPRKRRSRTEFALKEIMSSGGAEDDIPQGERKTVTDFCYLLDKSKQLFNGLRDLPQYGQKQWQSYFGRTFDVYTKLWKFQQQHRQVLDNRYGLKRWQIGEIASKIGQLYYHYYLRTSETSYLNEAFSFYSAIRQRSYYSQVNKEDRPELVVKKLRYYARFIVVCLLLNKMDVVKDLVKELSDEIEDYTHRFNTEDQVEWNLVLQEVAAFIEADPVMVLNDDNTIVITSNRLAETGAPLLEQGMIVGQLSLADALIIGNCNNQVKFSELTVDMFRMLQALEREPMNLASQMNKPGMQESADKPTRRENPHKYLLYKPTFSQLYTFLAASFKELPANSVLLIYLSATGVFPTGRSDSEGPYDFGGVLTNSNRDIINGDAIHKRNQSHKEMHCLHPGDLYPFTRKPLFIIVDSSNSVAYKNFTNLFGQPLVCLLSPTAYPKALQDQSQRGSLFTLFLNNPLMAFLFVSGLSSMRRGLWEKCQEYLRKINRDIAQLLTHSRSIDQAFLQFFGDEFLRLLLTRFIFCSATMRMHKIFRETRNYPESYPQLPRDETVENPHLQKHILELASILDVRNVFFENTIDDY
UniProt Q9HCY8: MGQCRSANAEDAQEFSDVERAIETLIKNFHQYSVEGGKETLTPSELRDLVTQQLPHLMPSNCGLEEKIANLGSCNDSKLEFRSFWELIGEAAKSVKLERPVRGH
UniProt Q13296: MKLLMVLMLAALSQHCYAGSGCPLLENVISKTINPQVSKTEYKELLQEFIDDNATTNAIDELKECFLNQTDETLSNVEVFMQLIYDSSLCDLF
UniProt Q9NPB0: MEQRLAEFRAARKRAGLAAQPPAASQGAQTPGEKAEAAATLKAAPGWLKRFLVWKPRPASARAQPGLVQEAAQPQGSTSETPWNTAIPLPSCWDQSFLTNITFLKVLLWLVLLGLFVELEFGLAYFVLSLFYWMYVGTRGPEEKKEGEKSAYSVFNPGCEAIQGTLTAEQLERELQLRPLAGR
UniProt Q9Y3A4: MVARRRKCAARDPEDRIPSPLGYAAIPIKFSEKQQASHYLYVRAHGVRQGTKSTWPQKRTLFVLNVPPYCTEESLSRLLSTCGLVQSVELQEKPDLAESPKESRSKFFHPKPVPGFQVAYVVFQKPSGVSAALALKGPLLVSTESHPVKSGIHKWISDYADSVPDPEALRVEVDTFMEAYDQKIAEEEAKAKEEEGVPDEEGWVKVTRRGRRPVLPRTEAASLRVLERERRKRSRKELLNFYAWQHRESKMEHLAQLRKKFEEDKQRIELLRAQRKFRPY
UniProt Q9Y3V2: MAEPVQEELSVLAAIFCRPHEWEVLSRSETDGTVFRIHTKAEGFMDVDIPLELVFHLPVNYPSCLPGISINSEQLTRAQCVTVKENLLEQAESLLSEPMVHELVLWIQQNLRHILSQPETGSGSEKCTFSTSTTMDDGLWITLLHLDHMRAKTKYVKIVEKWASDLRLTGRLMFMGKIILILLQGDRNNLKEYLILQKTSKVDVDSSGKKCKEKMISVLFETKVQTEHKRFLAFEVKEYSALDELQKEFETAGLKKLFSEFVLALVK
UniProt Q96BU1: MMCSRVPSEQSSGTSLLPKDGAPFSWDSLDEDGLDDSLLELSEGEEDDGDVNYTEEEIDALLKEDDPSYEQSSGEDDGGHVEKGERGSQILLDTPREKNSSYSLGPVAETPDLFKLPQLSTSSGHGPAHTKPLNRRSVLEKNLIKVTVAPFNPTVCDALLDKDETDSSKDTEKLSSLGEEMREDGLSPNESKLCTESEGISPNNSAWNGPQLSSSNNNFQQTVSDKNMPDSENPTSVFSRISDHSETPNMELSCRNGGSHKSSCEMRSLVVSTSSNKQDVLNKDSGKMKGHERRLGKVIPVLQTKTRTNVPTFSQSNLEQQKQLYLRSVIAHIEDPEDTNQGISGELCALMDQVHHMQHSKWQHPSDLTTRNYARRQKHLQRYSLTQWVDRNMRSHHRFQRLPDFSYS
UniProt P60903, whole entry, looked up: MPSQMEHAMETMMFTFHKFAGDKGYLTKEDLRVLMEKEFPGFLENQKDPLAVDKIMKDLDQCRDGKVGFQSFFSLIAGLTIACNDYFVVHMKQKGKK
UniProt P23297: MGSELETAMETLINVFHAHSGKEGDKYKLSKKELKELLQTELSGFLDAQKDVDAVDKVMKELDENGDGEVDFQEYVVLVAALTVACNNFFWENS
UniProt P26447: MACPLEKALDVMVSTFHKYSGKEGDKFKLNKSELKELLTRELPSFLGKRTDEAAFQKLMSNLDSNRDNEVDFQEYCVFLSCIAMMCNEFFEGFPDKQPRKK
UniProt O14828: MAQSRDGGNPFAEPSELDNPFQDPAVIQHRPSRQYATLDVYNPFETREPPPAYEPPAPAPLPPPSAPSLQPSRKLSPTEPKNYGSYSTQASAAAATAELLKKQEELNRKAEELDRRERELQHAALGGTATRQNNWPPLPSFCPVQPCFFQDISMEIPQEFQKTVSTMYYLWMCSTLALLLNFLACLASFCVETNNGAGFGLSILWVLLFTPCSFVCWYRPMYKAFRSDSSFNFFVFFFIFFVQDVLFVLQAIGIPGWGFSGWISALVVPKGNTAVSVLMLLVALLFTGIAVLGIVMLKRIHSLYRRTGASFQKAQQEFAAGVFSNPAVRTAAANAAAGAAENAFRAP

Target	log2 fold change
SBF2 (UniProt Q86WG5)	inactive: 0.012
S100A16 (UniProt Q96FQ6)	inactive: -0.115
SAMD4A (UniProt Q9UPU9)	inactive: -0.272
RTL8C (UniProt A6ZKI3)	inactive: 0.012
SCYL3 isoform 2 (UniProt Q8IZE3)	inactive: 0.014
SDHB, A0A087WXX8	inactive: -0.039
RTL10 (UniProt Q7L3V2)	inactive: 0.163
SCAI isoform 2 (UniProt Q8N9R8)	inactive: 0.009
S100A14 (UniProt Q9HCY8)	inactive: -0.175
SCN4A (UniProt P35499)	inactive: 0.133

What follows are targets tested with CN1CCN(c2nc(C3=C(c4c[nH]c5ccccc45)C(=O)NC3=O)c3ccccc3n2)CC1 [sotrastaurin] in the same assay as above.
Summary of the method: as §1

Target	log2 fold change
SCGB2A2 (UniProt Q13296)	inactive: 0.092
SAE1 (UniProt M0R286)	inactive: 0.118
SAYSD1 (UniProt Q9NPB0)	inactive: 0.116
RRP7A (UniProt Q9Y3A4)	inactive: 0.037
RWDD3 (UniProt Q9Y3V2)	inactive: -0.131
RXRB isoform 3 (UniProt P28702)	inactive: -0.04
S100PBP (UniProt Q96BU1)	inactive: 0.037
SCAF1 (UniProt Q9H7N4)	inactive: 0.295
S100A10 (UniProt P60903)	inactive: -0.147
S100A1 (UniProt P23297)	inactive: 0.053
RSL24D1 (UniProt Q9UHA3)	inactive: 0.028

What follows are targets tested with CN1CC[C@H](c2c(O)cc(O)c3c(=O)cc(-c4ccccc4Cl)oc23)[C@H](O)C1 [alvocidib] in the same assay as above.
Summary of the method: as §1

Target	log2 fold change
SAE1 (UniProt M0R286)	inactive: -0.183
SAYSD1 (UniProt Q9NPB0)	inactive: 0.065
RRP7A (UniProt Q9Y3A4)	inactive: 0.117
SDHB, A0A087WXX8	inactive: 0.08
RTL10 (UniProt Q7L3V2)	inactive: -0.005
SCAI isoform 2 (UniProt Q8N9R8)	inactive: -0.021
S100PBP (UniProt Q96BU1)	inactive: -0.322
SAP130 isoform 3 (UniProt Q9H0E3)	inactive: 0.004

These targets were tested with CN1CCc2c(c3ccccc3n2Cc2ccc(C(=O)NO)cc2)C1 [Tubastatin A] in the same assay as above.
Summary of the method: as §1

Target	log2 fold change
SCGB2A2 (UniProt Q13296)	inactive: 0.338
SDF2 (UniProt Q99470)	inactive: 0.114
S100A16 (UniProt Q96FQ6)	inactive: 0.151
RRP7A (UniProt Q9Y3A4)	inactive: -0.03
SAMD4A (UniProt Q9UPU9)	inactive: -0.024
SAV1 (UniProt Q9H4B6)	inactive: 0
SCYL3 isoform 2 (UniProt Q8IZE3)	inactive: -0.063
RTL10 (UniProt Q7L3V2)	inactive: 0.094
RXRG (UniProt P48443)	inactive: -0.026
S100A14 (UniProt Q9HCY8)	inactive: 0.281
S100PBP (UniProt Q96BU1)	inactive: 0.141
S100A10 (UniProt P60903)	inactive: 0.195
RSL24D1 (UniProt Q9UHA3)	inactive: 0.162

These targets were tested with CNC(=O)C1=CC=CC=C1NC2=NC(=NC=C2Cl)NC3=C(C=C(C=C3)N4CCOCC4)OC in the same assay as above.
Summary of the method: as §1

Target	log2 fold change
SDF2 (UniProt Q99470)	inactive: 0.155
RXYLT1 (UniProt Q9Y2B1)	inactive: -0.164
SAE1 (UniProt M0R286)	inactive: -0.192
SAYSD1 (UniProt Q9NPB0)	inactive: -0.069
S100A16 (UniProt Q96FQ6)	inactive: 0.204
RRP7A (UniProt Q9Y3A4)	inactive: -0.061
SAMD4A (UniProt Q9UPU9)	inactive: 0.073
SCYL3 isoform 2 (UniProt Q8IZE3)	inactive: -0.042
SDHB, A0A087WXX8	inactive: -0.007
SCAI isoform 2 (UniProt Q8N9R8)	inactive: 0.016
S100A4 (UniProt P26447)	inactive: 0.123
S100A14 (UniProt Q9HCY8)	inactive: -0.151
S100PBP (UniProt Q96BU1)	inactive: -0.053
S100A1 (UniProt P23297)	inactive: 0.18
RSL24D1 (UniProt Q9UHA3)	inactive: 0.161

Each target was assayed with CNC(=O)c1ccc(Nc2ncc(C(F)(F)F)c(NCc3nccnc3N(C)S(C)(=O)=O)n2)cc1 [defactinib] in the same assay as above.
Summary of the method: as §1

Target	log2 fold change
SCGB2A2 (UniProt Q13296)	inactive: 0.111
SCAMP3 isoform 2 (UniProt O14828)	inactive: 0
SAE1 (UniProt M0R286)	inactive: 0.002
RUBCN (UniProt Q92622)	inactive: 0.063
S100A16 (UniProt Q96FQ6)	inactive: -0.049
RRP7A (UniProt Q9Y3A4)	inactive: 0.14
RTL8C (UniProt A6ZKI3)	inactive: -0.025
SCYL3 isoform 2 (UniProt Q8IZE3)	inactive: -0.014
SDHB, A0A087WXX8	inactive: 0.024
RTL10 (UniProt Q7L3V2)	inactive: 0
SCAI isoform 2 (UniProt Q8N9R8)	inactive: 0.004
S100A14 (UniProt Q9HCY8)	inactive: -0.1
S100PBP (UniProt Q96BU1)	inactive: -0.08
SAP130 isoform 3 (UniProt Q9H0E3)	inactive: 0.163
RSL24D1 (UniProt Q9UHA3)	inactive: 0.46

Source: the supplement of paper PMC10849652
